Assay results as given in PubChem BioAssay AID2685 (National Center for Advancing Translational Sciences (NCATS), 2010).
This is one part of the list. The main result of the screen is listed elsewhere. These columns were measured beside it and carry no call. Most of these compounds were active or inconclusive in the main read-out, so they are no random draw. Words in brackets tell the shape of the fitted curve; partial curves, single points and poor fits give uncertain potencies.

Assay: qHTS Assay for Lipid Storage Modulators in Drosophila S3 Cells;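 for cell number change: cells counted by Cell Tracker Red CMTPX staining in the red channel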
Conditions: BODIPY lipid droplet fluorescence, 18-24 h; for cell number change: measured here: cell count max response, cells fed with added oleic acid
How it was run: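 Laser-scanning cytometry quantifies lipid droplet accumulation (500–530 nm total intensity; droplet/cell object ratio) in oleic acid-fed (400 uM added) Drosophila S3 cells treated with a concentration series. 20 uM Triacsin C defined 100% inhibition.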

[1] = measured here: cell number channel AC50, cells fed with added oleic acid
[2] = measured here: lipid fluorescence (Fed channel) AC50, cells fed with added oleic acid

| Structure (SMILES) | cell number change [%] | AC50 [1] | AC50 [2] |
| --- | --- | --- | --- |
| Cc1ccc(Cc2c(C)nc3nc(SCC(=O)NCCCN4CCOCC4)nn3c2C)cc1 | 84.9 | 20.6 µM [rising, single point] | – |
| COc1ccccc1CC(=O)Nc1ccc(S(=O)(=O)N2CCOCC2)cc1 | -2.1 | – | – |
| Cc1cccc(NC(=O)CSCC(=O)N(C)CCOc2ccc(Cl)cc2)c1 | -12.8 | 0.116 µM [falling, full curve, poor fit] | – |
| O=C(Nc1nc2cc3c(cc2s1)OCO3)c1cccc(N2C(=O)CCC2=O)c1 | – | – | 32.6 µM [rising, single point] |
| CCCN(CC(=O)Nc1ccccc1C)C(=O)C1CCN(C(=O)Nc2ccccc2)CC1 | -9.32 | – | 29.1 µM [falling, single point] |
| COc1cccc(C(=O)O[C@@H]2[C@H](Cc3ccccc3)NS(=O)(=O)[C@H]3C[C@@H]4C=C[C@]23O4)c1 | 8.04 | – | 6.51 µM [rising, single point] |
| COC(=O)c1cccc(C23CC4(C2)[C@H](CN(C)[C@@H]4c2ccccc2)C3c2ccc(C(F)(F)F)cc2)c1 (stereo not given in full) | -30.3 | 8.2 µM [falling, partial curve, poor fit] | 5.17 µM [falling, full curve] |
| CC(OC(=O)CCc1nc2ccccc2c(=O)[nH]1)C(=O)c1ccc(C(C)(C)C)cc1 (stereo not given) | 3.26 | 0.116 µM [rising, full curve, poor fit] | 5.8 µM [falling, full curve] |
| Cc1cccc(C)c1NC(=O)c1cc2c(=O)c3ccccc3oc2nc1C(F)(F)F | -47.5 | 29.1 µM [falling, single point] | 20.6 µM [falling, partial curve, poor fit] |
| Cc1nn(-c2ccccc2)c(Cl)c1C(=O)NCC(C)C | – | – | 6.51 µM [rising, single point] |
| CSc1ccccc1C(=O)OCC(=O)N1CCN(C(C)=O)CC1 | 23 | – | 2.31 µM [rising, single point] |
| O=C(Nc1cccc(N=Cc2cc(Cl)cc(Br)c2O)c1)c1ccco1 | -24.3 | – | 29.1 µM [falling, single point] |
| Cc1cccc(CSc2nc3c(c(-c4cccs4)c2C#N)CN(C)CC3)c1 | 15.8 | – | 29.1 µM [rising, single point] |
| COc1ccc(CCN(C(=O)COc2ccccc2)c2nc(-c3ccccc3)cs2)cc1OC | -24.1 | – | 7.31 µM [falling, partial curve] |
| Cc1ccc(NC(=O)c2cccs2)cc1NC(=O)c1ccco1 | -3.32 | – | 0.206 µM [rising, full curve, poor fit] |

Full records as entered above. Order of values: cell number change [%]	AC50 [1]	AC50 [2]
CSc1ccccc1C(=O)OCC(=O)N1CCN(C(C)=O)CC1 in the list: 23	–	2.31 µM [rising, single point]
Cc1nn(-c2ccccc2)c(Cl)c1C(=O)NCC(C)C in the list: –	–	6.51 µM [rising, single point]
